According to the supplement of paper PMC10849652:
This is one part of the list.

The chains behind the UniProt entries cited, without tags or fusion partners. Where a name states a change or a piece, a line headed by the entry shows the natural chain unless it says otherwise.
UniProt Q7Z4H3: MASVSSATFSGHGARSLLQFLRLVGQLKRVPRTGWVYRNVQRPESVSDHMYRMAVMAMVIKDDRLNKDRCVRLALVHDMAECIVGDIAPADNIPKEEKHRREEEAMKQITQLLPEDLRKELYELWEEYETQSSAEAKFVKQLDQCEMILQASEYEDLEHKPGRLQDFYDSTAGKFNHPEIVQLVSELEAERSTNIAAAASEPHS
UniProt Q9BSH5: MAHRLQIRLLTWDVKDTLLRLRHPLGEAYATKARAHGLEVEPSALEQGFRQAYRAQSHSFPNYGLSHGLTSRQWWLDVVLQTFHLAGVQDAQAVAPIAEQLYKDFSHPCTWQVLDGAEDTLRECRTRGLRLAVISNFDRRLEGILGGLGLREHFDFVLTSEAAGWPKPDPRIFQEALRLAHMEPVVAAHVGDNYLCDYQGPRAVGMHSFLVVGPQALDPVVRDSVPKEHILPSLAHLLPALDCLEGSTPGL
UniProt Q9BT25: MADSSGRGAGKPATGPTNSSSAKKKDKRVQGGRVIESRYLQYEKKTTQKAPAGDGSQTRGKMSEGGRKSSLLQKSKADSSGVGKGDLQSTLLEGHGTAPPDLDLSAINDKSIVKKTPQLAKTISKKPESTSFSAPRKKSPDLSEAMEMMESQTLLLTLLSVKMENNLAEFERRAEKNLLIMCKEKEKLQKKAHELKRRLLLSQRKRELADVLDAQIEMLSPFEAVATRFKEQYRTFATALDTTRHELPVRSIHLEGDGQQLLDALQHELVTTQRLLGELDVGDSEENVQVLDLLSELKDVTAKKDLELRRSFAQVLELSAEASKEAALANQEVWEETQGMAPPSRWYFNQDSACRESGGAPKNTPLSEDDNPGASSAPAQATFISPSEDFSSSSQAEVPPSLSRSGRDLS
UniProt P09105: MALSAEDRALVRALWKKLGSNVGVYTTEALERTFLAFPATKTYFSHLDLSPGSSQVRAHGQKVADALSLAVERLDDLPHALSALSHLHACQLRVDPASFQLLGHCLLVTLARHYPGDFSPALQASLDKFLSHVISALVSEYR
UniProt P04921: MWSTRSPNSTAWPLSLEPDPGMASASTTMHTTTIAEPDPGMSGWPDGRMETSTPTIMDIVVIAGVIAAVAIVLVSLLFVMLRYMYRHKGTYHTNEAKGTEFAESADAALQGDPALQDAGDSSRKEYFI
UniProt Q12789: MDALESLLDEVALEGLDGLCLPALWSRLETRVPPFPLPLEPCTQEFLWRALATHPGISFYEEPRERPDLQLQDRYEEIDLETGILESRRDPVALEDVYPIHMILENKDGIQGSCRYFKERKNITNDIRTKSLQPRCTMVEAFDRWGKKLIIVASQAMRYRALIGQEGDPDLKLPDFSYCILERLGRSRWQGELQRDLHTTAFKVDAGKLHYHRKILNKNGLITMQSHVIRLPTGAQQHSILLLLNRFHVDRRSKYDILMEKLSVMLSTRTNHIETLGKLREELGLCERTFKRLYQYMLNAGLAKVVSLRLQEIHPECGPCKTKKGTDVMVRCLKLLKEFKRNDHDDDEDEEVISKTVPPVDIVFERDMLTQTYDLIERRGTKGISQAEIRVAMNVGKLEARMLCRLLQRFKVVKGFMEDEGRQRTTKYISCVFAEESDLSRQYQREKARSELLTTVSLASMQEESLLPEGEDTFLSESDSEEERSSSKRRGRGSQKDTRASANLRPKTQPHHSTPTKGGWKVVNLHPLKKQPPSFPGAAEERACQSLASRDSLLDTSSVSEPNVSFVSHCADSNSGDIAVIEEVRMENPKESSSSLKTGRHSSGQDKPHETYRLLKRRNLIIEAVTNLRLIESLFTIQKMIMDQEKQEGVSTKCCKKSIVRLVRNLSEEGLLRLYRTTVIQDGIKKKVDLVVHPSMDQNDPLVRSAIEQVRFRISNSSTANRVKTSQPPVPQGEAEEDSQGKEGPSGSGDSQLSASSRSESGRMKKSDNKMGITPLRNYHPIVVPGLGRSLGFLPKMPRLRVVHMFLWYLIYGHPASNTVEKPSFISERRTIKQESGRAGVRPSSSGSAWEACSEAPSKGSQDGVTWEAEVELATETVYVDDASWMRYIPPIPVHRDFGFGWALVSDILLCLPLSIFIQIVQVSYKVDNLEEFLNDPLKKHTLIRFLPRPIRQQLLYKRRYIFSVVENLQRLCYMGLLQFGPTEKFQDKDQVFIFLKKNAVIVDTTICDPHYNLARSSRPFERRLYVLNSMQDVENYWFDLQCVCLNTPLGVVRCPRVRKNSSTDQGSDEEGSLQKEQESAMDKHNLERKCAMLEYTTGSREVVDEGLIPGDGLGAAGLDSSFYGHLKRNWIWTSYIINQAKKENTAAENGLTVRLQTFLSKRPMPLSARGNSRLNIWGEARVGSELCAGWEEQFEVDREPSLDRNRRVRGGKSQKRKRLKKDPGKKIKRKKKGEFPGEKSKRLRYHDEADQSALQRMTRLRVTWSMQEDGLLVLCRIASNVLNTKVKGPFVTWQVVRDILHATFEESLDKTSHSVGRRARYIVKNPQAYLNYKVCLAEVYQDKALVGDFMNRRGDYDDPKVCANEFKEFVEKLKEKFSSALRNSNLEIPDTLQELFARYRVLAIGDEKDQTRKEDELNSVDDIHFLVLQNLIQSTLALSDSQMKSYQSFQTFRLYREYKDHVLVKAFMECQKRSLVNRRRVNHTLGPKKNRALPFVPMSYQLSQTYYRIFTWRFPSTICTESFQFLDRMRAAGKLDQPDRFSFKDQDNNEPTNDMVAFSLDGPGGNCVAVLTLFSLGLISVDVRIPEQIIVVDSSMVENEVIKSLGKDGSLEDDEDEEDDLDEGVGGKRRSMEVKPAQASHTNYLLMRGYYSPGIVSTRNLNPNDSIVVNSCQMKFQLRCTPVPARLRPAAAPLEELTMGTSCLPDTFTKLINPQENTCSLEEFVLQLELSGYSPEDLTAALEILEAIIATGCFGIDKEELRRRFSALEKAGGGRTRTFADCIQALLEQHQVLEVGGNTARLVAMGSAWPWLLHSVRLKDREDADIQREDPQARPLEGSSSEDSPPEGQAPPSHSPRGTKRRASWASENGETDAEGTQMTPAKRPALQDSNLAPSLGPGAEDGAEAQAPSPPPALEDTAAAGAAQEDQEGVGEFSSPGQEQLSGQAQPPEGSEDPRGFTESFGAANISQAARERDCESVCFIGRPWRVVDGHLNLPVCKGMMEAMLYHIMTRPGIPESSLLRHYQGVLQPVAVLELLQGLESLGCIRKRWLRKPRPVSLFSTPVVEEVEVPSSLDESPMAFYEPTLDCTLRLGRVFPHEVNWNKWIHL
UniProt Q96CS2: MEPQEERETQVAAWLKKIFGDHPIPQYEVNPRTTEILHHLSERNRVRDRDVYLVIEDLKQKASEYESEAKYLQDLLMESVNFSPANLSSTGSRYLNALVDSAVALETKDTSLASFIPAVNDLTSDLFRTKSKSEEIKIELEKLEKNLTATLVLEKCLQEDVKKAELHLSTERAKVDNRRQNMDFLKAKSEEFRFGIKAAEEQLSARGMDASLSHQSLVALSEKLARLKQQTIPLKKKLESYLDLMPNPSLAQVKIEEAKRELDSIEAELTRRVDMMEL
UniProt Q9P2D3: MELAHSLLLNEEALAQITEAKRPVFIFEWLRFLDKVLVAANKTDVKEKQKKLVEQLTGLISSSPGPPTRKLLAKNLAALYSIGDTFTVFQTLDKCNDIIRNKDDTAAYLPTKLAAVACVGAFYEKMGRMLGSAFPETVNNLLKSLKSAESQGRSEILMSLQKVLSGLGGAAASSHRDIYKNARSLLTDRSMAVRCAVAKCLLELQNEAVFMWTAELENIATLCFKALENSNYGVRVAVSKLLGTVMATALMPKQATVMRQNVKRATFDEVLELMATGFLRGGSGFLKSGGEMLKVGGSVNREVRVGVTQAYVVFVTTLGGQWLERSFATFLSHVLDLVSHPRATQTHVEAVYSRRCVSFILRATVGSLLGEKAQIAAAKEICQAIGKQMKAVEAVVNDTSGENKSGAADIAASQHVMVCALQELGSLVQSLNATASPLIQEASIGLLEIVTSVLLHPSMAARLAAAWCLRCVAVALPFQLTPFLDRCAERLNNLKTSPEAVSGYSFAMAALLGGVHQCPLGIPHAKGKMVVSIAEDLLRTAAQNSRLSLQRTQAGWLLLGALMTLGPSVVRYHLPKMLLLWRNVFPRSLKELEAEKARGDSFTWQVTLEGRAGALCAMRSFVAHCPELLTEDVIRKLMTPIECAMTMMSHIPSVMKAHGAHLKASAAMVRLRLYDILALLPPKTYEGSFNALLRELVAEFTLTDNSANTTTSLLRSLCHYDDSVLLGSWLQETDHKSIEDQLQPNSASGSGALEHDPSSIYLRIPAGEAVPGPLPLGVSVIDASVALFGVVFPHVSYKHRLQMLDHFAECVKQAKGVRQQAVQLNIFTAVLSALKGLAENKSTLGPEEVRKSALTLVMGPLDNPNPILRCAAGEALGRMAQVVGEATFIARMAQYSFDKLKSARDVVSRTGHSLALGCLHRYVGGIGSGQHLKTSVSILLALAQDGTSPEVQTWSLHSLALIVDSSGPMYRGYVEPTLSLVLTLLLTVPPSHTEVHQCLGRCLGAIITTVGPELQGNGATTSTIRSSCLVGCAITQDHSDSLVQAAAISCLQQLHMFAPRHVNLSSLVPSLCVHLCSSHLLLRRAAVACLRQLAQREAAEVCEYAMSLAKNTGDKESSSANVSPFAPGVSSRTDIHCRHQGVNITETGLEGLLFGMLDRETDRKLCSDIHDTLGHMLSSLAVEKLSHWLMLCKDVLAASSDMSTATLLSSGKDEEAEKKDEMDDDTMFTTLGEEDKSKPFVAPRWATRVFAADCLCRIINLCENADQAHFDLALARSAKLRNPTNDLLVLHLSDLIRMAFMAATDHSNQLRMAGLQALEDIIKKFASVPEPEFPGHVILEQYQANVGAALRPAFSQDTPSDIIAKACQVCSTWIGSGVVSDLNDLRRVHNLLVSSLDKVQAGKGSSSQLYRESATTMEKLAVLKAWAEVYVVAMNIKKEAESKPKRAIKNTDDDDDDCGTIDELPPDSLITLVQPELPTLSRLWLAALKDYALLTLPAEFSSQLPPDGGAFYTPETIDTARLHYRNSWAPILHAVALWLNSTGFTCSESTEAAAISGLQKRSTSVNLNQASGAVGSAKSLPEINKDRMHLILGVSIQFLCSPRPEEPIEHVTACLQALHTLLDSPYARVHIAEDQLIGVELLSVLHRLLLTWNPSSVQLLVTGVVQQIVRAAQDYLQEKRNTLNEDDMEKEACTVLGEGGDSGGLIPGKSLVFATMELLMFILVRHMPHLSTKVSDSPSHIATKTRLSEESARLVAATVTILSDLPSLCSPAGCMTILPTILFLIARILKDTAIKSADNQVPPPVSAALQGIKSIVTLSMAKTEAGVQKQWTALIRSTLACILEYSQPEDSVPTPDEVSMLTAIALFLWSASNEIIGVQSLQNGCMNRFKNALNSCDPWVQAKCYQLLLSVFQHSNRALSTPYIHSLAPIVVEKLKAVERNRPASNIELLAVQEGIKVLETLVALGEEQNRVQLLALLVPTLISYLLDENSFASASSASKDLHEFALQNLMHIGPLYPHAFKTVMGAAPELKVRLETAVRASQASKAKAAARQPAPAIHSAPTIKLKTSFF
UniProt Q9Y5Q8: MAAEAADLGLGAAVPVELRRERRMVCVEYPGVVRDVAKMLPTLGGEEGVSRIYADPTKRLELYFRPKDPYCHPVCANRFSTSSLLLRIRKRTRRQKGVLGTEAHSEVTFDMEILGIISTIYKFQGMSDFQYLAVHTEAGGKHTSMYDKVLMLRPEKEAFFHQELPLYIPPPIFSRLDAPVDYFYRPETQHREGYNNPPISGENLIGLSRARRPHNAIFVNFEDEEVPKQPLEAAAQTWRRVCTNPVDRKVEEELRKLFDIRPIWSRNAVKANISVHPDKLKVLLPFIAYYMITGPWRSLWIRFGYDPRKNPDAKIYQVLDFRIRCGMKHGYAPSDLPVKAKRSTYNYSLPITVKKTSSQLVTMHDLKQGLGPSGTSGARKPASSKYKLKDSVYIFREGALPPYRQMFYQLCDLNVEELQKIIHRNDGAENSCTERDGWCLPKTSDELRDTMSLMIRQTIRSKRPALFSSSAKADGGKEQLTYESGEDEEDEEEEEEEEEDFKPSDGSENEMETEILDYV
UniProt P49841: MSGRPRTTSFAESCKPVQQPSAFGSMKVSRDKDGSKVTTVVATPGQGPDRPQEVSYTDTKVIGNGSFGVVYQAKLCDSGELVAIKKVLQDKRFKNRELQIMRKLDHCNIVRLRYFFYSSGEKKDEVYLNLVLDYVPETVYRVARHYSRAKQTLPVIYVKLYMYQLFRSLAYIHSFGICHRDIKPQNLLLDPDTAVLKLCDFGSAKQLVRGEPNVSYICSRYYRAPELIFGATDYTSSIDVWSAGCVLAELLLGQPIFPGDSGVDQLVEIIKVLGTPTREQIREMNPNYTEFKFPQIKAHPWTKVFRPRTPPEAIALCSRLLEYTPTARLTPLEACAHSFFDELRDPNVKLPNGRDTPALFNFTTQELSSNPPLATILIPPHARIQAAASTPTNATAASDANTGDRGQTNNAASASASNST

Tests used:
Experiment in all cases: log2 fold change, soluble protein after heating vs DMSO (PISA); higher = thermal stabilisation; K562 lysate, 10 uM; active = over 0.2 and 3.5 SD of the protein, either way, in both replicates (recomputed)
nilotinib = compound: Cc1cn(-c2cc(NC(=O)c3ccc(C)c(Nc4nccc(-c5cccnc5)n4)c3)cc(C(F)(F)F)c2)cn1 [nilotinib]
Method in brief: (§1)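 Dounce homogenisation of K562 pellets in PBS pH 7.4 with 1 mM MgCl2 produced a crude extract, used at 1 mg/mL protein. Exposure to 10 μM compound lasted 30 min, and aliquots were then heated for 3 min across 48°C-58°C, pooled and brought to 0.5% NP-40 at 4°C. The supernatant after 21,000xg for 90 min was quantified by TMTpro 16plex LC-MS/MS with channel sums equalised. Duplicate values are given as log-two fold change in thermal stability relative to solvent controls.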

[1] = compound: Cc1nc(Nc2n[nH]c3c2CN(C(=O)N[C@H](CN(C)C)c2ccccc2)C3(C)C)c2sccc2n1
Method in brief: as §1

dasatinib = compound: Cc1nc(Nc2ncc(C(=O)Nc3c(C)cccc3Cl)s2)cc(N2CCN(CCO)CC2)n1 [dasatinib]
Method in brief: as §1

[2] = compound: Cc1ncc(-c2ccnc(Nc3ccc(S(C)(=O)=O)cc3)n2)n1C(C)C
Method in brief: as §1

[3] = compound: Cn1cc(-c2ccc3c(c2)CCN3C(=O)Cc2cccc(C(F)(F)F)c2)c2c(N)ncnc21
Method in brief: as §1

quisinostat = compound: Cn1cc(CNCC2CCN(c3ncc(C(=O)NO)cn3)CC2)c2ccccc21 [quisinostat]
Method in brief: as §1

tipifarnib = compound: Cn1cncc1[C@@](N)(c1ccc(Cl)cc1)c1ccc2c(c1)c(-c1cccc(Cl)c1)cc(=O)n2C [tipifarnib]
Method in brief: as §1

[4] = compound: NC(=O)Nc1cc(-c2cccc(F)c2)sc1C(=O)N[C@H]1CCCNC1
Method in brief: as §1

[5] = compound: NC(=O)c1cnc(N[C@@H]2CCCC[C@@H]2N)nc1Nc1cccc(-n2nccn2)c1
Method in brief: as §1

[6] = compound: NC1(c2ccc(-c3nc4ccn5c(=O)[nH]nc5c4cc3-c3ccccc3)cc2)CCC1
Method in brief: as §1

Row | Target | log2 fold change (nilotinib) | log2 fold change [1] | log2 fold change (dasatinib) | log2 fold change [2] | log2 fold change [3] | log2 fold change (quisinostat) | log2 fold change (tipifarnib) | log2 fold change [4] | log2 fold change [5] | log2 fold change [6]
1 | HACE1 (UniProt Q8IYU2) | inactive: -0.027 | inactive: 0.043 | inactive: -0.154 | inactive: 0.035 | inactive: -0.084 | inactive: 0.061 | inactive: -0.175 | inactive: 0.181 | inactive: 0.028 | inactive: -0.02
2 | GRAMD4 (UniProt Q6IC98) | inactive: 0.161 | inactive: -0.246 | inactive: -0.063 | inactive: 0.28 | inactive: -0.126 | inactive: -0.12 | inactive: -0.017 | inactive: 0.091 | inactive: -0.044 | inactive: -0.149
3 | GRPEL1 (UniProt Q9HAV7) | inactive: -0.004 | inactive: 0.005 | inactive: -0.017 | inactive: 0.025 | inactive: 0.016 | inactive: 0.042 | inactive: 0.017 | inactive: -0.039 | inactive: -0.015 | inactive: 0.009
4 | GTPBP3 isoform 2 (UniProt Q969Y2) | inactive: 0.057 | inactive: -0.083 | inactive: 0.03 | inactive: 0.065 | inactive: -0.002 | inactive: -0.105 | inactive: 0.006 | inactive: 0.033 | inactive: -0.02 | inactive: -0.089
5 | GSPT1 isoform 3 (UniProt P15170) | inactive: 0.024 | inactive: -0.001 | inactive: -0.007 | inactive: 0.022 | inactive: 0.005 | inactive: 0.043 | inactive: 0.008 | inactive: -0.012 | inactive: -0.017 | inactive: 0.004
6 | HAUS7 isoform 2 (UniProt Q99871) | inactive: 0.021 | inactive: 0.007 | inactive: 0.015 | inactive: 0.055 | inactive: -0.026 | inactive: -0.037 | inactive: -0.011 | inactive: 0.063 | inactive: 0.024 | inactive: -0.047
7 | HDDC2 (UniProt Q7Z4H3) | inactive: 0.055 | inactive: -0.002 | inactive: 0.039 | inactive: 0.034 | inactive: -0.012 | inactive: 0.026 | inactive: 0.017 | inactive: 0 | inactive: -0.037 | inactive: 0.008
8 | GRB2 (UniProt P62993) | inactive: 0.014 | inactive: 0.02 | inactive: 0.019 | inactive: -0.005 | inactive: -0.007 | inactive: -0.004 | inactive: 0.027 | inactive: -0.001 | inactive: -0.024 | inactive: -0.011
9 | H2AFX (UniProt P16104) | inactive: -0.013 | inactive: 0 | inactive: 0.02 | inactive: -0.029 | inactive: -0.008 | inactive: 0.007 | inactive: 0.007 | inactive: -0.015 | inactive: 0.04 | inactive: 0.008
10 | HDHD3 (UniProt Q9BSH5) | inactive: 0.036 | inactive: 0.04 | inactive: -0.011 | inactive: -0.022 | inactive: 0.027 | inactive: -0.058 | inactive: 0.021 | inactive: -0.021 | inactive: 0.013 | inactive: -0.032
11 | GYG1 isoform 2 (UniProt P46976) | inactive: -0.001 | inactive: -0.01 | inactive: 0.044 | inactive: 0.02 | inactive: -0.006 | inactive: 0.011 | inactive: -0.062 | inactive: -0.06 | inactive: -0.02 | inactive: 0.16
12 | HDDC3 (UniProt Q8N4P3) | inactive: 0.002 | inactive: 0.006 | inactive: -0.024 | inactive: -0.085 | inactive: 0.027 | inactive: 0.044 | inactive: -0.029 | inactive: -0.033 | inactive: -0.026 | inactive: 0.034
13 | GUK1 isoform 2 (UniProt Q16774) | inactive: -0.058 | inactive: 0.038 | inactive: -0.095 | inactive: -0.006 | inactive: -0.036 | inactive: -0.117 | inactive: -0.025 | inactive: 0.013 | inactive: -0.019 | inactive: -0.036
14 | GTF2B (UniProt Q00403) | inactive: -0.01 | inactive: 0.021 | inactive: -0.009 | inactive: -0.047 | inactive: 0.045 | inactive: -0.041 | inactive: 0.008 | inactive: -0.014 | inactive: -0.002 | inactive: -0.031
15 | HAUS8 (UniProt Q9BT25) | inactive: 0.025 | inactive: 0.026 | inactive: -0.073 | inactive: 0.005 | inactive: 0.015 | inactive: -0.085 | inactive: 0.004 | inactive: 0.042 | inactive: 0.02 | inactive: 0.006
16 | HBQ1 (UniProt P09105) | inactive: 0.046 | inactive: 0.039 | inactive: 0.044 | inactive: 0.1 | inactive: 0.011 | inactive: 0.026 | inactive: -0.024 | inactive: -0.029 | inactive: -0.028 | inactive: 0.025
17 | H1-2 (UniProt P16403) | inactive: -0.006 | inactive: 0.02 | inactive: -0.027 | inactive: -0.002 | inactive: -0.119 | inactive: -0.014 | inactive: -0.019 | inactive: 0.001 | inactive: 0.001 | inactive: 0.024
18 | GSPT2 (UniProt Q8IYD1) | inactive: -0.007 | inactive: -0.028 | inactive: 0.071 | inactive: 0.104 | inactive: 0.066 | inactive: -0.133 | inactive: 0 | inactive: 0.045 | inactive: -0.001 | inactive: 0.059
19 | HCFC1 isoform 4 (UniProt P51610) | inactive: 0.01 | inactive: 0.007 | inactive: 0 | inactive: 0.008 | inactive: -0.012 | inactive: 0.006 | inactive: -0.01 | inactive: -0.008 | inactive: -0.024 | inactive: 0.023
20 | GYPC (UniProt P04921) | inactive: 0.055 | inactive: -0.05 | inactive: 0.006 | inactive: 0.091 | inactive: 0.017 | inactive: -0.026 | inactive: 0.216 | inactive: 0.136 | inactive: 0.03 | inactive: -0.005
21 | H2AFY (UniProt O75367) | inactive: 0.013 | inactive: 0.003 | inactive: -0.087 | inactive: -0.003 | inactive: 0.005 | inactive: -0.099 | inactive: 0.005 | inactive: 0.058 | inactive: 0.001 | inactive: -0.034
22 | GTF3C1 (UniProt Q12789) | inactive: 0.012 | inactive: -0.008 | inactive: -0.021 | inactive: -0.001 | inactive: 0.013 | inactive: -0.16 | inactive: 0.008 | inactive: 0.019 | inactive: -0.001 | inactive: -0.008
23 | HAUS1 (UniProt Q96CS2) | inactive: 0.013 | inactive: -0.012 | inactive: -0.009 | inactive: -0.01 | inactive: -0.004 | inactive: -0.05 | inactive: -0.011 | inactive: 0.001 | inactive: -0.016 | inactive: -0.006
24 | GRSF1 (UniProt Q12849) | inactive: -0.006 | inactive: 0.007 | inactive: -0.024 | inactive: 0.018 | inactive: 0.019 | inactive: 0.002 | inactive: -0.013 | inactive: 0.02 | inactive: 0.017 | inactive: -0.009
25 | HEATR5B (UniProt Q9P2D3) | inactive: 0.038 | inactive: 0.012 | inactive: -0.043 | inactive: 0.02 | inactive: 0.032 | inactive: 0.002 | inactive: -0.013 | inactive: -0.024 | inactive: 0.008 | inactive: 0.002
26 | GTF3C5 isoform 3 (UniProt Q9Y5Q8) | inactive: 0.023 | inactive: -0.023 | inactive: -0.017 | inactive: -0.018 | inactive: 0.019 | inactive: -0.063 | inactive: -0.004 | inactive: 0.05 | inactive: -0.006 | inactive: 0.005
27 | GSK3B isoform 2 (UniProt P49841) | inactive: -0.06 | inactive: 0.576 | inactive: -0.023 | active: 0.64 | inactive: -0.028 | inactive: -0.084 | inactive: 0.003 | inactive: 0 | inactive: 0.061 | inactive: -0.039
28 | GUF1 (UniProt Q8N442) | inactive: 0.06 | inactive: 0.088 | inactive: 0.018 | inactive: -0.012 | inactive: 0.063 | inactive: -0.061 | inactive: -0.123 | inactive: 0.08 | inactive: 0.065 | inactive: -0.053
29 | H1-4 (UniProt P10412) | inactive: -0.044 | inactive: 0.019 | inactive: -0.022 | inactive: -0.028 | inactive: -0.025 | inactive: -0.001 | inactive: -0.057 | inactive: -0.02 | inactive: -0.06 | inactive: -0.072
30 | HAUS4 (UniProt Q9H6D7) | inactive: 0.03 | inactive: -0.05 | inactive: -0.052 | inactive: 0.016 | inactive: 0.052 | inactive: -0.065 | inactive: -0.021 | inactive: 0.053 | inactive: 0.014 | inactive: -0.012

Only log2 fold change (nilotinib) and log2 fold change (tipifarnib), for some of the entries so far:
Row	Target	log2 fold change (nilotinib)	log2 fold change (tipifarnib)
20	GYPC (UniProt P04921)	inactive: 0.055	inactive: 0.216
21	H2AFY (UniProt O75367)	inactive: 0.013	inactive: 0.005

Records 28–29, reprinted for reference:
Row | Target | log2 fold change (nilotinib) | log2 fold change [1] | log2 fold change (dasatinib) | log2 fold change [2] | log2 fold change [3] | log2 fold change (quisinostat) | log2 fold change (tipifarnib) | log2 fold change [4] | log2 fold change [5] | log2 fold change [6]
28 | GUF1 (UniProt Q8N442) | inactive: 0.06 | inactive: 0.088 | inactive: 0.018 | inactive: -0.012 | inactive: 0.063 | inactive: -0.061 | inactive: -0.123 | inactive: 0.08 | inactive: 0.065 | inactive: -0.053
29 | H1-4 (UniProt P10412) | inactive: -0.044 | inactive: 0.019 | inactive: -0.022 | inactive: -0.028 | inactive: -0.025 | inactive: -0.001 | inactive: -0.057 | inactive: -0.02 | inactive: -0.06 | inactive: -0.072
